Source: the supplement of paper PMC3334620
In all, about 33,000 sequences were measured (“E-score (-0.5 to 0.5)”: median about -0.016, highest 2% from about 0.3 on). Some of the results follow.

Molecular target: T1, Yer184c (UniProt P39961)
T1 sequence: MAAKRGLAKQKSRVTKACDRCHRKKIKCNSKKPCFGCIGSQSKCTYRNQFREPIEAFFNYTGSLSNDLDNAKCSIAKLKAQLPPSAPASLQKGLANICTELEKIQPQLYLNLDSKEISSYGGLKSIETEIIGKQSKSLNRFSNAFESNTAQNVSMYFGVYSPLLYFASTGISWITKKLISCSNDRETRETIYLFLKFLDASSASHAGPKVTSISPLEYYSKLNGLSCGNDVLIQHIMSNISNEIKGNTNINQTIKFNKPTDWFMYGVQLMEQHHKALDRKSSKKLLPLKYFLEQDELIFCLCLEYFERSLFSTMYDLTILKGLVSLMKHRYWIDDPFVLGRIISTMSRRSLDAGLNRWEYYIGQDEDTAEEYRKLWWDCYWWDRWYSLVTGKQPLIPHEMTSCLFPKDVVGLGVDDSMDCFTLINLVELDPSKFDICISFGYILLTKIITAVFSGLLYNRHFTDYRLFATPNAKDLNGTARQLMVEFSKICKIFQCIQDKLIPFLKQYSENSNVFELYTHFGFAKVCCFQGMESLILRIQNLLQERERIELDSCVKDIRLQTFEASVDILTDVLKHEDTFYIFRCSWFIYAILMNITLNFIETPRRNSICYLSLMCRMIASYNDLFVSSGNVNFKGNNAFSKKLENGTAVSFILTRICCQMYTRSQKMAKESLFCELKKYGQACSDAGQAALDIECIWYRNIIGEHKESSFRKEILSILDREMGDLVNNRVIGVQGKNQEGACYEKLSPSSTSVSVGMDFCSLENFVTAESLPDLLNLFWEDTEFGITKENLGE
Assay: PBM E-score (8-mer binding enrichment) (E-score (-0.5 to 0.5)); higher = stronger / more preferred TF binding
Details: protein concentration: 100 nM; construct: GST-full length
Procedure, shortened: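 GST-tagged yeast TFs (full-length or DNA-binding domain) were made by PURExpress in vitro transcription/translation and applied at about 100-200 nM to universal all-10-mer Agilent arrays. The arrays were made double-stranded by primer extension, on fresh or once-stripped slides. Bound protein was detected with fluorescent anti-GST, and scans were normalised with masliner. Each ungapped eight-base word, pooled with its reverse complement, received an E-score (modified Wilcoxon-Mann-Whitney statistic) from the Universal PBM Analysis Suite.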

Sequence	PBM E-score
CCCTAGTC	-0.41
CCACCGTA	-0.0148
GAAGGCTC	-0.107
CTGACGCA	-0.25
CACATGAA	0.0129
ATAAGAAC	0.202
TCTTCGAA	0.0317
CTAAGAAC	0.0817
AACTTATA	0.188
ATCAGCGG	-0.00977
CAGCACGG	0.183
ACGAGTAG	-0.021
CTTCCGCA	0.068
ACATATCA	0.024
CTGGAAAG	-0.131
CGAGTGGC	-0.0808
CTATGGAA	0.168
ACCTTGGC	-0.154
CAAACATG	-0.0644
CTTGGTTC	0.183
AGCCAAAA	0.0812
ACGTCGTC	-0.0607
CACAATAC	0.0256
TGCGTCCA	-0.126
AGTTCGTA	0.109

Sequence	PBM E-score
CCTCTCAC	-0.15
CACAGAAA	0.165
CCCAAGTC	-0.223
CGGCATAA	0.273
GACTATGA	-0.147
CTCAGGGC	-0.0473
CTGCCTCC	-0.339
TTAACCAA	-0.0477
GAAACGCA	0.041
GAATACCA	0.0494
GTAGGAAC	0.0812
AAGCCGGG	0.246
TCCCTACA	-0.13
AAAGGGGC	-0.273
CGTTGTGA	0.0532
AAAGCCTA	-0.12
TCTCTTCA	0.133
TAGGTGAA	0.0169
ATGTGTTA	0.066
CTCCCCAG	-0.399
CTAGGGCA	-0.311
AGTCTCGC	-0.142
AACGGCAA	0.178
GCGACCAA	0.0217
CGCGTAAA	0.127

Sequence	PBM E-score
CATTCATA	0.186
ACCCTAAG	-0.129
CCTGCACA	-0.255
ATGCATAA	-0.0648
CCCGGTAC	0.0651
CTTGGTGC	-0.175
ATGCATCC	0.00412
GAATCCTA	0.152
AGTCCAAT	-0.049
TCAACACA	0.179
CTCAATAA	0.0747
GTAGTCCA	-0.154
CTCCTCAC	-0.189
GCGCGGCA	0.158
TACCGTAA	0.103
GCTATCGA	-0.102
AAAGGGTC	-0.125
AGGGCACG	-0.329
ACCCTCTA	-0.305
AACTGCGT	-0.00116
ACATGGAT	-0.0527
CATCTTTA	0.15
AAAATTAT	0.316
ATCCGGAA	0.418
AACGACAC	-0.186

Sequence	PBM E-score
ATAGTCCC	-0.267
CTTGTTTC	0.0564
GATGAACA	0.143
ATCTTCAT	0.0601
CCTCGTGC	0.0746
CCTCGGAA	0.28
CAAGCGAC	-0.208
GCTTAGCA	-0.0181
ACTCATAG	-0.0267
ATACGTTA	-0.0508
AACGATAG	0.0402
ATCAGAGC	-0.119
CTAGCCCC	-0.22
GCACTAGA	-0.138
GGGACTAC	-0.0414
CTTGGTAC	-0.0492
AATATGCC	-0.0491
CTGATTAA	0.221
CTTTTCAC	0.0979
CGAGCGGA	0.167
CAGTAATA	0.168
CAATGCAC	-0.0494
CCACAGTA	-0.1
ACGGGCAG	-0.0367
ATTTGTTA	0.16

Sequence	PBM E-score
GAGATTAA	0.0828
AGAGGCTC	-0.278
CATTAATG	0.0115
AGTTGATG	0.0893
CCTGGGTC	-0.0566
AAGTACAG	-0.182
AATCGTTC	0.0446
ATCTGAAG	-0.0528
AAATTGCT	0.0164
CGCAGCAA	-0.138
ACCCACAC	-0.0483
GGGCGCTA	-0.192
ATCCCAAG	0.00205
CGTCCAAG	-0.0418
ATCTTATC	0.0892
TGTCTAAA	0.0812
CATAGATG	-0.143
GGAGAGCA	-0.106
GAGGGCGC	-0.187
GACGCAGA	0.0207
GAGTTAAA	0.119
GGAAGGAC	-0.0211
ACAAGGCG	-0.0941
TCGCGCAA	0.148
TTAAATAA	0.163

As entered above.
Under PBM E-score, ATCTTCAT shows 0.0601
Under PBM E-score, CTTGGTGC shows -0.175
Under PBM E-score, CATTAATG shows 0.0115

Further results.

Sequence	PBM E-score
CGTGGAGC	-0.025
CAGGAATG	-0.124
ATCCGTAA	0.149
CGCGCCTA	0.0946
GAGCAGAA	0.0139
TGAGTAAA	-0.169
ACTTGGAT	-0.031
GGATAGGA	-0.0966
AACTCGGG	0.107
AGATGTCG	-0.00904
ACCCGCGA	-0.0511
GGCAACCC	-0.0421
CATGGTCG	-0.0756
AGGCGGCA	-0.0565
CCTAAGAC	-0.303
CAACACTA	0.0674
AACACATT	0.0963
AGTTGTCG	0.0405
GAAATGGA	-0.212
ACTATGCT	0.103
AATATAGT	0.167
ATAATTGG	0.0686
ATATGAAA	0.213
TATCAGAA	0.216
TCCGACCA	0.145

Sequence	PBM E-score
CTGCAGTC	-0.217
ATAACCGG	0.154
AGACTATG	-0.196
ATGAGTTC	0.0584
GTATTATA	0.263
AAAAAAAT	0.164
TGGTAACA	-0.029
GAAAACGA	0.0502
CTCAGAGC	-0.251
AAATTACC	0.00841
AGAGTAGC	-0.166
GAGAAAAC	0.046
CCGTCTGA	-0.0122
CCGTTTGA	0.0488
ACTTAAGA	0.155
GTGCGGCA	0.119
ACAATAGC	-0.0638
TCAGGAGA	0.0784
CCGTAACG	-0.0339
GAGGTAAA	0.148
GAGGGAAC	-0.0368
ACGGTATA	0.0673

As a working copy, some entries already given:
Sequence	PBM E-score
AACGATAG	0.0402
ATCAGAGC	-0.119
CTAGCCCC	-0.22
GCACTAGA	-0.138
